# Where “and” joins values, the source holds several entries; their conditions need not be identical. Equal entries are not always repeated. Out of some 400,000 compounds screened, about 5,500 (1.4%) were called active. The inconclusive results got no clear call from the source; some entries with a clear call stand among them for comparison. Calls follow the shape of the dose curve; as a rule, active = well fitted cell-killing curve with a large enough effect; inconclusive = small, poorly fitted or top-dose-only effect, or effect the other way; inactive = flat fitted curve, though single readings scatter. Where the call is inconclusive, the potency comes from a doubtful curve fit.
# Assay: qHTS assay for MDR1-selective chemotherapeutics: Primary screen using the parental adenocarcinoma cell KB-3-1; also: nearly all actives have a fitted effect of over 60% in size
# Conditions: KB-3-1 viability, CellTiter-Glo ATP luminescence, 72 h; activity change, negative = cytotoxic: at 46.1 µM (top of the series)
# Method in brief: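 Parental KB-3-1 viability, qHTS format: 72 h compound exposure, 37 °C; CellTiter-Glo; media-only wells and DMSO plates as controls; concentration-effect fits on corrected data.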
# % is scaled to controls: 0 for no effect and ±100 for the full control effect; potency is read from the fitted curve at half-maximal effect.
Structure (SMILES),Potency,"activity change, negative = cytotoxic"
CC(C#N)(NC(=O)CN1CCN(S(=O)(=O)c2ccccc2C#N)CC1)C1CC1 (configuration not stated),inactive,
COc1ccc(C(CCNCc2ccc(F)cc2)c2ccc(F)cc2)cc1 (configuration not stated),"inconclusive: 29.1 µM [cytotoxic, single point]",
CN1CCN(CCC(=O)Nc2ccccc2)CC1,inactive,
O=C(c1cccc(S(=O)(=O)N2CCN(c3ccc(F)cc3)CC2)c1)N1CCCC(C(F)(F)F)C1 (configuration not stated),"inconclusive: 23.1 µM [cytotoxic, single point]",
COc1ccccc1NC(=S)N(CCc1c(C)[nH]c2ccccc12)Cc1cccs1,"inconclusive: 18.4 µM [cytotoxic, single point]",
c1csc(CNc2ncnc3ccc(-c4ccc5c(c4)OCCO5)cc23)c1,"inconclusive: 29.1 µM [cytotoxic, single point]",
CC(=O)Nc1cc(-c2cccc(F)c2)cn2c(-c3ccccc3)cnc12,inactive,
C=C1C(=O)O[C@H]2[C@H]1[C@H](OC(=O)/C(C)=C\C)C[C@]1(CO1)[C@@H]1[C@H](OC(C)=O)C=C(C)[C@]21O,inactive,
CC1=Nc2cc(C(=O)NCCc3ccccc3)ccc2Sc2c(C)ccc(C)c21,active: 0.651 µM,
CC(C)(C)c1ccc(C(=O)N2CCN(c3ccc(N4CCOCC4)nn3)CC2)cc1,inactive,
COc1ccc(Cn2c(=O)[nH]c3cc(C(=O)N4CCN(c5ccccc5OC)CC4)ccc3c2=O)cc1,active: 20.6 µM,
CCOC(=O)C1=CNS(=O)(=O)NC1c1ccc(C)cc1 (configuration not stated),inactive,
CCNc1nc(OC)nc(SCC(=O)Nc2ccccc2)n1,"inconclusive: 18.4 µM [cytotoxic, single point]",
CC(C)C(=O)Nc1cccc(NC(=S)NC(=O)C(c2ccccc2)c2ccccc2)c1,active: 20.6 µM,
CCc1ccc(Nc2n[n+](-c3ccccc3)c(-c3ccc(SC)cc3)s2)cc1,"inconclusive: 29.1 µM [cytotoxic, single point]",
COc1ccc(C)cc1NC(=O)c1ccc(=O)n(Cc2ccccc2)c1,inactive,
Cn1c(/C=C/c2cccc([N+](=O)[O-])c2)c([N+](=O)[O-])c(=O)n(C)c1=O,"inconclusive: 29.1 µM [cytotoxic, single point]",
COc1ccccc1N=Nc1c(O)[nH]c2ccc(Br)cc12,inactive,
CCOc1ccc(S(=O)(=O)NCc2cccnc2)cc1NC(=O)c1ccccc1,inactive,
CC(C)(C)c1ccc(C(=O)NNc2cc(N3CCCCC3)nc(N3CCCCC3)n2)cc1,"inconclusive: 18.4 µM [cytotoxic, single point]",
Cc1cc(=O)[nH]c(N/N=C/c2c(C)nn(-c3ccccc3)c2C)n1,inactive,
CC(C)(C)OC(=O)N1CCCC(C(=O)Nc2ccc(C(=O)NCCc3ccccc3)cc2)C1 (configuration not stated),inactive,
Cc1ccsc1/C=C/c1ccc2cccc(O)c2n1,"inconclusive: 23.1 µM [cytotoxic, single point]",
Cc1ccc(/C=C/c2onc(C)c2S(=O)(=O)N2CCC(C(=O)N3CCN(c4ccccc4F)CC3)CC2)cc1,inactive,

Structure (SMILES),Potency,"activity change, negative = cytotoxic"
CCOc1ccc(S(=O)(=O)N2CCC(C(=O)OC(C)C(=O)N(C)C3CCCCC3)CC2)cc1 (configuration not stated),"inconclusive: 29.1 µM [cytotoxic, single point]",
Cn1cccc1/C=N/NC(=O)c1ccncc1,"inconclusive: 29.1 µM [rising, single point]",
Cc1ccccc1Cc1c(C)nc2c(C(=O)NCc3ccco3)cnn2c1C,inactive,
COc1cc(CN2C[C@@H](CO)O[C@@H](n3cnc4c(N(C)C)ncnc43)C2)cc(OC)c1OC,,inconclusive: -0.317%
O=C(CCC(=O)Nc1ccc(F)cc1)N/N=C/c1ccccc1,inactive,
O=C(Nc1ccc(N2CCN(C(=O)c3ccccc3)CC2)cc1)c1ccc2c(c1)OCO2,"inconclusive: 0.82 µM [cytotoxic, full curve, poor fit]",
Cc1ccc(-c2cc(NC(=O)CCl)n(-c3ccccc3)n2)cc1,"inconclusive: 29.1 µM [cytotoxic, single point]",
COc1ccc(OC)c(N(CC(=O)N2CCc3ccccc3C2)S(C)(=O)=O)c1,"inconclusive: 11.6 µM [rising, partial curve, poor fit]",
CN1CCN(c2ccccc2NC(=O)c2ccc(-c3cccc(Cl)c3)o2)CC1,"inconclusive: 0.58 µM [rising, full curve, poor fit]",
Cn1nc(NC(=O)C(F)(F)F)c2ncc(-c3ccccc3)nc21,inactive,
O=C(COC(=O)Cc1c[nH]c2ccccc12)Nc1ccccc1,inactive,
Cc1ccc(NC(=O)CSc2nc3sc(C)cc3c(=O)n2C)cc1,"inconclusive: 23.1 µM [cytotoxic, partial curve, poor fit]",
CCn1c2ccc(OC)cc2c2nc3ccccc3nc21,inactive,
CC(Sc1nnc(-c2ccco2)n1N)C(=O)NC1CCCCC1C (configuration not stated),inactive,
Cc1ccc(CNc2ncnc3onc(-c4ccc(F)cc4)c23)cc1,"inconclusive: 9.2 µM [cytotoxic, partial curve]",
Cc1cccc(NC(=O)CSc2ccc3nnc(-c4cccnc4)n3n2)c1,"inconclusive: 29.1 µM [rising, single point]",
Cn1nc(C(F)(F)F)c(/C=N/OC(=O)c2ccccc2)c1SCc1ccccc1Cl,"inconclusive: 29.1 µM [cytotoxic, single point]",
COc1ccc(-c2nnc(SCC(=O)NC3CCCCC3)nc2-c2ccc(OC)cc2)cc1,inactive,
COc1ccc(-c2csc(/C(C#N)=C\c3ccc(O)c([N+](=O)[O-])c3)n2)cc1OC,inactive,
COc1ccc(C(=O)Nc2ccc3c(c2)CCCN3C(=O)c2cccs2)c(OC)c1,"inconclusive: 29.1 µM [cytotoxic, partial curve, poor fit] and inconclusive: 29.1 µM [cytotoxic, single point]",
Cc1ccc(Cl)c2c1NC(=O)C2(O)CC(=O)c1ccccc1O (configuration not stated),"inconclusive: 29.1 µM [cytotoxic, single point]",
Cc1ccc(C)c(C(=O)c2c(C)nc3sccn23)c1,"inconclusive: 29.1 µM [cytotoxic, single point]",
CCOc1cc(C=O)ccc1OCc1cc(=O)n2cc(C)ccc2n1,"inconclusive: 14.6 µM [rising, partial curve]",
OCCOCCn1c(C2CCCN2c2nc(-c3ccc(F)cc3)cs2)nc2cc(Cl)c(Cl)cc21 (configuration not stated),"inconclusive: 23.1 µM [cytotoxic, single point]",

# Fetched by structure from the entries so far:
Structure (SMILES),Potency,"activity change, negative = cytotoxic"
CCOc1ccc(S(=O)(=O)N2CCC(C(=O)OC(C)C(=O)N(C)C3CCCCC3)CC2)cc1 (configuration not stated),"inconclusive: 29.1 µM [cytotoxic, single point]",
COc1ccc(C(=O)Nc2ccc3c(c2)CCCN3C(=O)c2cccs2)c(OC)c1,"inconclusive: 29.1 µM [cytotoxic, partial curve, poor fit] and inconclusive: 29.1 µM [cytotoxic, single point]",
Cc1ccc(CNc2ncnc3onc(-c4ccc(F)cc4)c23)cc1,"inconclusive: 9.2 µM [cytotoxic, partial curve]",
O=C(CCC(=O)Nc1ccc(F)cc1)N/N=C/c1ccccc1,inactive,

# Following part.

Structure (SMILES),Potency,"activity change, negative = cytotoxic"
CC1CN(C(=O)CSc2nnc3c(Cl)cc(Cl)cn23)CC(C)O1 (configuration not stated),inactive,
COc1cc(OC)c2c(-c3ccccc3)cc(=O)oc2c1C(CCN1CCCC(C)C1)c1ccc2c(c1)OCO2 (configuration not stated),"inconclusive: 29.1 µM [cytotoxic, single point]",
Cc1cc(C)c(NC(=O)CC(=O)c2ccccc2)c(Cl)c1,inactive,
Cc1ccc(-c2cc(-c3n[nH]c(=S)o3)c3ccccc3n2)cc1,"inconclusive: 29.1 µM [cytotoxic, single point]",
CCN1CCN(c2cc(C)c3cc(NC(=O)c4ccc5c(c4)OCO5)ccc3n2)CC1,"inconclusive: 25.9 µM [cytotoxic, single point]",
Cc1ccc(-c2nnc(CSc3nnc(COc4cccc5ccccc45)n3-c3ccccc3)o2)cc1,"inconclusive: 29.1 µM [cytotoxic, single point]",
C=CCNc1ncnc2c1ncn2C1OC(CO)C(O)C1O (configuration not stated),inactive,
CCC1(c2ccc(F)cc2)NC(=O)N(CC(=O)N2CCN(S(=O)(=O)c3ccc(C)cc3C)CC2)C1=O (configuration not stated),"inconclusive: 23.1 µM [cytotoxic, single point]",
COc1ccccc1C(=O)C1CCCN(C(=O)CCn2cnnn2)C1 (configuration not stated),inactive,
Cc1cccc(N2C(=O)CSC23C(=O)N(CC(=O)NCc2ccccc2Cl)c2ccccc23)c1 (configuration not stated),inactive,
Cc1ccnc2nc(C(=O)NC3=NCCS3)nn12,"inconclusive: 20.6 µM [rising, single point]",
COc1ccccc1NC(=O)Cn1c(=O)c(CNc2ccc(C)cc2)cc2cc3c(cc21)OCCO3,inactive,
O=C(NCC1CCCO1)C1CCCN1C(=O)NC1CCCCC1 (configuration not stated),"inconclusive: 18.4 µM [rising, partial curve, poor fit]",
CC(C)N(CC(N)=O)C(=O)Cc1coc2cc3c(cc12)CCC3,inactive,
COc1cc(CNc2ccc(CNc3ncn[nH]3)cc2)ccc1OCc1ccccc1,"inconclusive: 20.6 µM [cytotoxic, partial curve]",
COc1cc(N=C2C(=O)N3c4c(cccc42)C(C)=CC3(C)C)cc(OC)c1,inactive,
O=C(NC12CC3CC(CC(C3)C1)C2)N1CCC(O)(c2ccc3c(c2)OCO3)CC1,inactive,
CC(=O)Nc1ccc(C(=O)OCC(=O)Nc2c(C)n(C)n(-c3ccccc3)c2=O)cc1,inactive,
COc1cccc(C2=CC(c3cc(Br)ccc3F)n3nnnc3N2)c1 (configuration not stated),active: 13 µM,
CCN(c1ccccc1)S(=O)(=O)c1ccc(Cl)c(NC(=O)Nc2ccc(Cl)cc2C#N)c1,"inconclusive: 29.1 µM [cytotoxic, single point]",
COc1cc2c(cc1OC)[C@H](C)N(C(=O)NCc1ccccc1)CC2,"inconclusive: 29.1 µM [cytotoxic, single point]",
Brc1ccc(-c2csc(N/N=C/c3ccco3)n2)cc1,inactive,
Cc1c2cnccc2c(C)c2c1c1ccccc1n2CCOC(=O)c1ccccc1,inactive,
CCCCNC(=O)C[C@@H]1C[C@@]2(C(=O)OC)CCCCC=C2N(Cc2cccc3ccccc23)C1=O,"inconclusive: 23.1 µM [cytotoxic, single point]",

# Reference: PubChem BioAssay AID1347075 (National Center for Advancing Translational Sciences (NCATS), 2019)
